Results are given in words; binding and its absence hold for the method and conditions named. In cells and extracts the contact can be indirect. Some entries that bind do so weakly or less than the wild type. Tags and fused reporters may be left off the sequences shown. Each block holds one molecule with its values, some of them ahead of it.
How the values were obtained:
[1] = biological target: T1, Flag-tagged E75 (A isoform of Eip75B), overexpressed in Drosophila tissue (Drosophila melanogaster) (UniProt P17671); assay: proximity ligation
T1 sequence: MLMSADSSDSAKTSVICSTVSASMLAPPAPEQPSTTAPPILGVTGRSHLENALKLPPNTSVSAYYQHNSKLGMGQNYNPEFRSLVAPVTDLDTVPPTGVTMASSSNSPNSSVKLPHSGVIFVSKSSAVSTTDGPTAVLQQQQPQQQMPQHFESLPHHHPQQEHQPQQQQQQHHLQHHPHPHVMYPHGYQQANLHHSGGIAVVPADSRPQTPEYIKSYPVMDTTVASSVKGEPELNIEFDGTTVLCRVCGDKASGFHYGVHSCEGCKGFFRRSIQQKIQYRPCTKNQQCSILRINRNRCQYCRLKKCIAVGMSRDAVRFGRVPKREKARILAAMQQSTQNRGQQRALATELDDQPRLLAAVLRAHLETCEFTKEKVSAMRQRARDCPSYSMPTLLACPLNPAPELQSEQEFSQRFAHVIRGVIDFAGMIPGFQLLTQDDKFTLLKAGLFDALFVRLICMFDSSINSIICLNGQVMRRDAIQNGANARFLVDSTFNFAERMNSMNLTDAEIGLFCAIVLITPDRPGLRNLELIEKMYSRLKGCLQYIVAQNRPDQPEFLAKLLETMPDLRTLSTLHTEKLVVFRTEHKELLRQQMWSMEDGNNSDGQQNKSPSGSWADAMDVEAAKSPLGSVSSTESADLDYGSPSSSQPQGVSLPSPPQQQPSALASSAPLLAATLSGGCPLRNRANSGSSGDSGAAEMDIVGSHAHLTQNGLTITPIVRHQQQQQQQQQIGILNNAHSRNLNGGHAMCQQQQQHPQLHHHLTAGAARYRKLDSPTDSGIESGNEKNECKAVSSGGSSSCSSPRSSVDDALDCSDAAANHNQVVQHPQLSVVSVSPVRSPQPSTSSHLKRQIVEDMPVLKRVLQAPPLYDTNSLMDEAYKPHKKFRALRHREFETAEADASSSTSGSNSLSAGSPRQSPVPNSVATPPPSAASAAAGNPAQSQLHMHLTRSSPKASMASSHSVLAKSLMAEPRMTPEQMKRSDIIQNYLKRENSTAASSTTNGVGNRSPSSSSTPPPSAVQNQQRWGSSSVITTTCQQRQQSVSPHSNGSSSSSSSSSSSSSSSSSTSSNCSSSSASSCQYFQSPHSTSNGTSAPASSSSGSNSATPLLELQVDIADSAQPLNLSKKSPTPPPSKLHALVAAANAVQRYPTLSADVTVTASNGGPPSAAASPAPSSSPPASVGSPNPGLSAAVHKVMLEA

The chains behind the UniProt entries cited, without tags or fusion partners.
UniProt Q06330: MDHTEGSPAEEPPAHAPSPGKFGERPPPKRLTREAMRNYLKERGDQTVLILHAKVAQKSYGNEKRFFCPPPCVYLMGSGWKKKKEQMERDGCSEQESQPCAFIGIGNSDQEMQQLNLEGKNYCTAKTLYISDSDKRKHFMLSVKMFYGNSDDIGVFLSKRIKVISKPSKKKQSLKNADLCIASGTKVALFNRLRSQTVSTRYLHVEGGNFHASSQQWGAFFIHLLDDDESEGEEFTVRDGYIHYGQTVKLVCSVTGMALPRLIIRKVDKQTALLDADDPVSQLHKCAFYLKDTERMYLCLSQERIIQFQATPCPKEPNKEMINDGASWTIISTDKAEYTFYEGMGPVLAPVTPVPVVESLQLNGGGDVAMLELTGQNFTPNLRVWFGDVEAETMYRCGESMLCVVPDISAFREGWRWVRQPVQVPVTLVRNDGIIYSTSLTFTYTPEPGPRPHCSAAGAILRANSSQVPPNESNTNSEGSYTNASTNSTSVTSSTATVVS
UniProt P30052: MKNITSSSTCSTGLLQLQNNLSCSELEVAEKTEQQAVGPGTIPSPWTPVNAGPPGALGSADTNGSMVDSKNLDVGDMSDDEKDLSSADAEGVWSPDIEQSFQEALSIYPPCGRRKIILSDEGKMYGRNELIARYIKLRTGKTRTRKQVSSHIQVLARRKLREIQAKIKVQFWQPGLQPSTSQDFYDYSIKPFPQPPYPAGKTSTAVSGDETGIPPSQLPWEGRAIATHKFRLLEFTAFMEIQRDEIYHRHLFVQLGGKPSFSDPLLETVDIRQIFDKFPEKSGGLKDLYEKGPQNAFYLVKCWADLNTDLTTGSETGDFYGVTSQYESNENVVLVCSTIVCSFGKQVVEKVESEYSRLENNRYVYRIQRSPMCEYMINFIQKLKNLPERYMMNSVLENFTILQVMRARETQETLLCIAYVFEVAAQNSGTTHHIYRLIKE
UniProt P28159: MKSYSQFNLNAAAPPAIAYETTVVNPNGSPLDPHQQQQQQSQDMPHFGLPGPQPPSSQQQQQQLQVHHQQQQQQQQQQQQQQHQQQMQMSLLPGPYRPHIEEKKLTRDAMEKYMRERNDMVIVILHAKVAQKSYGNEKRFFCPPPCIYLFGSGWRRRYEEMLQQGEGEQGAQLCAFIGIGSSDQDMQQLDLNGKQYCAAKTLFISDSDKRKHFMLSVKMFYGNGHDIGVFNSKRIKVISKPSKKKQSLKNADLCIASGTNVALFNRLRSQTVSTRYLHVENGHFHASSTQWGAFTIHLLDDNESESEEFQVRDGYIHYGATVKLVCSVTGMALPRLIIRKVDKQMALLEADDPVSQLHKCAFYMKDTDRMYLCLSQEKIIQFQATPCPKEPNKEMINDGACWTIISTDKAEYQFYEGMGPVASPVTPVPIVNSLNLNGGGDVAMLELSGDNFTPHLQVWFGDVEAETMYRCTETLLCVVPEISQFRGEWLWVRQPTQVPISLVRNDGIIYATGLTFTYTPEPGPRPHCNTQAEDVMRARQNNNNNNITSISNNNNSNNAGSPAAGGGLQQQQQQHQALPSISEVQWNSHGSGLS
UniProt Q9GZV5: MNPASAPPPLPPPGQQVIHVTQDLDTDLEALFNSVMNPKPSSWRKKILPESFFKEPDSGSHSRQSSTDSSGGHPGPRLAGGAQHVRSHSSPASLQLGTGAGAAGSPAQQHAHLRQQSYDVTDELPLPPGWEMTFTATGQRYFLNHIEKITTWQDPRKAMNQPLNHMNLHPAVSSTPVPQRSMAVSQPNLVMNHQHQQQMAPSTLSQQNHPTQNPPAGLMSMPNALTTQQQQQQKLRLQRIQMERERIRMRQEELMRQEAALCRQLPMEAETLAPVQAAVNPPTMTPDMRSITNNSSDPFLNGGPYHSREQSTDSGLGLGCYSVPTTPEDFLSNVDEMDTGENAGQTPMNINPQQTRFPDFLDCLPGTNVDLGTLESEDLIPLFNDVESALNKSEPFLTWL

[2] = biological target: T1, Flag-tagged E75 (A isoform of Eip75B), overexpressed in Drosophila tissue (Drosophila melanogaster); assay: proximity ligation; remark: listed apart in the source
[3] = biological target: T2, HA-tagged NR1D2 stably expressed in U87 MG cells (UniProt Q14995); assay: co-IP
T2 sequence: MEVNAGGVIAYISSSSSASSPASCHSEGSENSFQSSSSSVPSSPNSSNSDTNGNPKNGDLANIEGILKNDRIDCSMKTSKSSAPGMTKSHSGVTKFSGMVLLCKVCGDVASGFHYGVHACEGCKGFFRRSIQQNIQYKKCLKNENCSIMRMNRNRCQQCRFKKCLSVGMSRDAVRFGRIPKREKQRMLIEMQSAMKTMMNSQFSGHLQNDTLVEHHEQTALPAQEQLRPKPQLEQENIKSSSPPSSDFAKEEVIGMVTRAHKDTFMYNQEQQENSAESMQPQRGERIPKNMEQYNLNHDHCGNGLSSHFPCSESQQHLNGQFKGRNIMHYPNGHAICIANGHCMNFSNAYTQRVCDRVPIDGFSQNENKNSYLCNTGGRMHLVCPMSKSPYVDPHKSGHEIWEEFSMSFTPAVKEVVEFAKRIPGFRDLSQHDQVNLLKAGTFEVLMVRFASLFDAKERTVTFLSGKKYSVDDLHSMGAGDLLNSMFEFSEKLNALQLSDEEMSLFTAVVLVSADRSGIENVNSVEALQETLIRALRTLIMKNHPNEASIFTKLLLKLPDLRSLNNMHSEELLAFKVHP

[4] = biological target: T3, Myc-tagged E75 expressed in Drosophila S2 cells (Drosophila melanogaster) (UniProt P17671); assay: co-IP
T3 sequence: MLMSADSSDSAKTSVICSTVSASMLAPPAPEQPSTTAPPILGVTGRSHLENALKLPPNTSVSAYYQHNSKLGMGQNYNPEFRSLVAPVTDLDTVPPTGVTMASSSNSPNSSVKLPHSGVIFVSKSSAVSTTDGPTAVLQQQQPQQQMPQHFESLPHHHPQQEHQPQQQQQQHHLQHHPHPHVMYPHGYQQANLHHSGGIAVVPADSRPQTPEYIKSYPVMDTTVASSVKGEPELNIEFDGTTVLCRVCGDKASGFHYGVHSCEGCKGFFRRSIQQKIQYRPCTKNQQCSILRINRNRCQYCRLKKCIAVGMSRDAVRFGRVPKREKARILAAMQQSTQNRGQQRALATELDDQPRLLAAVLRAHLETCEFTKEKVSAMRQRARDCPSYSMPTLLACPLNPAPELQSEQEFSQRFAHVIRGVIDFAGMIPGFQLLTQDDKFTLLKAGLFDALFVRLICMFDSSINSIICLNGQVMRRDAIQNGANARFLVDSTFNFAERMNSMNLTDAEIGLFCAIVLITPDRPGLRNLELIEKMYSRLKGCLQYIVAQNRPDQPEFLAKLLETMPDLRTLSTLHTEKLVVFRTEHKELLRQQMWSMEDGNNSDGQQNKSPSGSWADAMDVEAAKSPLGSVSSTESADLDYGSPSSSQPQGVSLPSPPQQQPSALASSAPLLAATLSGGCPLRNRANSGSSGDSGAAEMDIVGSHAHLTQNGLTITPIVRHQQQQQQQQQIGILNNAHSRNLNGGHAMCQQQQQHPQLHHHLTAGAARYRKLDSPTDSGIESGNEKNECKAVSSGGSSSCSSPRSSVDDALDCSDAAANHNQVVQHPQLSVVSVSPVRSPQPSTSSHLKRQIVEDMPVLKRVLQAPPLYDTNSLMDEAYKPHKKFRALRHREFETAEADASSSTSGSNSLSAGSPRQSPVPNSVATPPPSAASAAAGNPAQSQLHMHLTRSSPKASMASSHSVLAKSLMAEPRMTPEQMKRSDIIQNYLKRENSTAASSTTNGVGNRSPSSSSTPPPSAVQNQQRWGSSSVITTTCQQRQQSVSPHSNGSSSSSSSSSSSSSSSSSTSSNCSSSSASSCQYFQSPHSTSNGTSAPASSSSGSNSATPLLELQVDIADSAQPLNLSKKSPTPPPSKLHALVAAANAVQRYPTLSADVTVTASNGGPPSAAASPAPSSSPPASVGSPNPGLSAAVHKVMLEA

[5] = biological target: T4, Flag-tagged E75 expressed in Drosophila S2 cells (Drosophila melanogaster) (UniProt P17671); assay: co-IP
T4 sequence: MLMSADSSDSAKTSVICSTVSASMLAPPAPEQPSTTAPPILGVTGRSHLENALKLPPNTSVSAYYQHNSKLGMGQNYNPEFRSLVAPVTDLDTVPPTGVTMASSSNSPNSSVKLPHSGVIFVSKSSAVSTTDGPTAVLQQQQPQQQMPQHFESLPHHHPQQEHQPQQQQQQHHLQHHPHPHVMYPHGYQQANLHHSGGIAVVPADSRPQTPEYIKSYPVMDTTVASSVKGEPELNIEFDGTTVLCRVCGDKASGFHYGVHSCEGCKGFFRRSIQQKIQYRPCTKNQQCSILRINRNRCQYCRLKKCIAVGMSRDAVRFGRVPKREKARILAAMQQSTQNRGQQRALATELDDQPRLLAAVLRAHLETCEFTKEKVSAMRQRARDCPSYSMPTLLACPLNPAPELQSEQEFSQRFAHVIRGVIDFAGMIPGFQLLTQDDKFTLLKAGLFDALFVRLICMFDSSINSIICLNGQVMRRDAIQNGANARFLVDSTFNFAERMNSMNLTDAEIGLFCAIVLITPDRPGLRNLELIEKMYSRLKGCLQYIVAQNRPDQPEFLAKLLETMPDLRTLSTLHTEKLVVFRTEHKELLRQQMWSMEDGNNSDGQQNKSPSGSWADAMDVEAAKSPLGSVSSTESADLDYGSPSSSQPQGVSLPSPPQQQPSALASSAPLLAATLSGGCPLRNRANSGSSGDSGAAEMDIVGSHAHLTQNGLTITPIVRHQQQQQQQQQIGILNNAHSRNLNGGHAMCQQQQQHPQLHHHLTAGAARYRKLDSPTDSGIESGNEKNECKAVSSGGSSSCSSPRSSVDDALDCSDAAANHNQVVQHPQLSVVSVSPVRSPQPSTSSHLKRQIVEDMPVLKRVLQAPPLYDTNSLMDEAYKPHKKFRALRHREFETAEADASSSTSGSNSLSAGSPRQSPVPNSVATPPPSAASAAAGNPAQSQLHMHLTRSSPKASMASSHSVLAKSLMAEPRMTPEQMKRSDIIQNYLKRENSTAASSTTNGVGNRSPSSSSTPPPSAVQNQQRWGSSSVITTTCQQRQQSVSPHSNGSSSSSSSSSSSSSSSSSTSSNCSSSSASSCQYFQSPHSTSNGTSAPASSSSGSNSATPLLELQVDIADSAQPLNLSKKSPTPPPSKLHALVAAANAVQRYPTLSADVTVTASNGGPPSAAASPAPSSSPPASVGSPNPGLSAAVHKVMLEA

[6] = biological target: T1, Flag-tagged E75 (A isoform of Eip75B), overexpressed in Drosophila tissue (Drosophila melanogaster); assay: co-IP

binding [3]: binds
Molecule: RBPJ, endogenous in human glioblastoma cells (from UniProt Q06330 1-500)

binding [5]: binds
Molecule: HA-tagged Sd expressed in Drosophila S2 cells (from UniProt P30052 1-440)

binding [2]: binds
B1: Myc-tagged Yorkie (Yki) expressed in Drosophila wing discs (protein, UniProt Q45VV3 1-395)
chain: MLTTMSASSNTNSLIEKEIDDEDMLSPIKSNNLVVRVNQDTDDNLQALFDSVLNPGDAKRPLQLPLRMRKLPNSFFTPPAPSHSRANSADSTYDAGSQSSINIGNKASIVQQPDGQSPIAAIPQLQIQPSPQHSRLAIHHSRARSSPASLQQNYNVRARSDAAAANNPNANPSSQQQPAGPTFPENSAQEFPSGAPASSAIDLDAMNTCMSQDIPMSMQTVHKKQRSYDVISPIQLNRQLGALPPGWEQAKTNDGQIYYLNHTTKSTQWEDPRIQYRQQQQILMAERIKQNDVLQTTKQTTTSTIANNLGPLPDGWEQAVTESGDLYFINHIDRTTSWNDPRMQSGLSVLDCPDNLVSSLQIEDNLCSNLFNDAQAIVNPPSSHKPDDLEWYKIN

binding [6]: binds
B2: Yki ectopically expressed in Drosophila discs (yki transgene) (protein, UniProt Q45VV3 1-395)
chain: MLTTMSASSNTNSLIEKEIDDEDMLSPIKSNNLVVRVNQDTDDNLQALFDSVLNPGDAKRPLQLPLRMRKLPNSFFTPPAPSHSRANSADSTYDAGSQSSINIGNKASIVQQPDGQSPIAAIPQLQIQPSPQHSRLAIHHSRARSSPASLQQNYNVRARSDAAAANNPNANPSSQQQPAGPTFPENSAQEFPSGAPASSAIDLDAMNTCMSQDIPMSMQTVHKKQRSYDVISPIQLNRQLGALPPGWEQAKTNDGQIYYLNHTTKSTQWEDPRIQYRQQQQILMAERIKQNDVLQTTKQTTTSTIANNLGPLPDGWEQAVTESGDLYFINHIDRTTSWNDPRMQSGLSVLDCPDNLVSSLQIEDNLCSNLFNDAQAIVNPPSSHKPDDLEWYKIN

Further lines, the molecule ahead of its results:

Molecule: Suppressor of Hairless [Su(H)], endogenous in Drosophila eye-antennal discs (from UniProt P28159 1-594)
binding [1]: binds

Molecule: HA-tagged Scalloped (Sd) expressed in Drosophila tissue (from UniProt P30052 1-440)
binding [1]: binds | binding [2]: binds

Molecule: TAZ (Transcriptional coactivator with PDZ-binding motif), endogenous in human glioblastoma cells (from UniProt Q9GZV5 1-400)
binding [3]: binds

Molecule: Flag-tagged Su(H) expressed in Drosophila S2 cells (from UniProt P28159 1-594)
binding [4]: binds
